Experimental data taken from PubChem BioAssay AID2685 (National Center for Advancing Translational Sciences (NCATS), 2010).
Some of the results follow. The main result of the screen is listed elsewhere. These columns were measured beside it and carry no call. Most of these compounds were active or inconclusive in the main read-out, so they are no random draw. Potencies come from curve fits of mixed quality, noted in brackets.

Test: qHTS Assay for Lipid Storage Modulators in Drosophila S3 Cells;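 for cell number change: cells counted by Cell Tracker Red CMTPX staining in the red channel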
Conditions: BODIPY lipid droplet fluorescence, 18-24 h; for cell number change: measured here: cell count max response, cells fed with added oleic acid
Summary of the method: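 Drosophila S3 cells loaded with oleic acid (400 uM, as added) and compounds at several concentrations; lipid droplets imaged by 488-nm laser-scanning cytometry, 500–530 nm intensity and object ratio to cell channel. Percent activity normalized to 20 uM Triacsin C.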

[1] = measured here: lipid fluorescence (Fed channel) AC50, cells fed with added oleic acid
[2] = measured here: cell number channel AC50, cells fed with added oleic acid

C#CCOCCOCCOCCNc1nc(N2CCN(C(=O)CCCCCCCCCCNC(=O)[C@H](CCC(=O)O)n3cc(CCCCCN)nn3)CC2)nc(N2CCN(C(=O)CCCCCCCCCCNC(=O)[C@@H]([C@H](C)O)n3cc(C)nn3)CC2)n1
cell number change: 16%
AC50 [1]: 6.51 µM [falling, single point]

COc1ccc(OC)c2[nH]c(=O)c(CCNC(=O)c3ccc(S(=O)(=O)N4CCCCC4)cc3)cc12
cell number change: -31.5%

COc1ccc(-n2nc3ccc(NS(C)(=O)=O)cc3n2)cc1Cl
cell number change: 1.88%

CC(C)(C)C1CCc2c(C(=O)NNC(=O)/C=C/C(=O)O)csc2C1 (stereo unspecified)
cell number change: 31.4%
AC50 [2]: 8.2 µM [rising, partial curve]
AC50 [1]: 0.731 µM [falling, full curve]

O=C(NC1CCCCC1)C(c1ccncc1)N(C(=O)c1csnn1)c1cccc(F)c1 (stereo unspecified)
cell number change: -12.8%

COC(=O)N/N=C(\C)c1ccc2ccccc2c1OC(F)F
cell number change: -8.46%
AC50 [1]: 8.2 µM [rising, partial curve]

O=C(CN1CCN(c2ccc(O)cc2)CC1)NC1CCCc2ccccc21 (stereo unspecified)
cell number change: -23.3%
AC50 [1]: 9.2 µM [rising, partial curve]

C/C(N)=C(/C#N)C(=O)COC(=O)COc1ccc(Cl)cc1
cell number change: -137%
AC50 [2]: 23.1 µM [falling, partial curve]
AC50 [1]: 2.31 µM [falling, partial curve, poor fit]

Nn1c(SCC(=O)Nc2ccc(F)cc2)nnc1-c1ccccn1
AC50 [2]: 1.46 µM [falling, partial curve]

Cc1nc2nc[nH]n2c(=O)c1NC(=O)c1c(-c2ccccc2Cl)noc1C
cell number change: -10.8%
AC50 [1]: 1.64 µM [falling, partial curve]

O=C(C1CCC(CNS(=O)(=O)c2cccc3nsnc23)CC1)N1CC=C(c2ccccc2)CC1 (stereo unspecified)
cell number change: -20%
AC50 [1]: 18.4 µM [falling, single point]

COc1ccc(C2=NNC(c3cc(Cl)cc4c3OCOC4)C2)c(O)c1 (stereo unspecified)
cell number change: 108%
AC50 [2]: 20.6 µM [rising, single point]
AC50 [1]: 29.1 µM [rising, single point]

COc1ccc2c(c1)c1nnc(SCC(=O)Nc3ccccc3F)nc1n2C
cell number change: 8.37%
AC50 [1]: 29.1 µM [falling, single point]

CC(C)(NC(=O)N1CCCC1)c1cccc(C(C)(C)NC(=O)N2CCCC2)c1
cell number change: -29.5%

COC(=O)C(CCSC)NC(=O)/C=C/c1ccc(OC)cc1 (stereo unspecified)
AC50 [2]: 0.291 µM [rising, partial curve]
AC50 [1]: 0.231 µM [rising, full curve]

COC(=O)c1cc(Br)c(=O)n(-c2ccc(F)cc2)c1
cell number change: -45.9%
AC50 [2]: 3.26 µM [falling, full curve]
AC50 [1]: 29.1 µM [falling, single point]

NC(=O)NC(=O)COC(=O)[C@H](Cc1ccccc1)NC(=O)c1cccs1
cell number change: 66.5%
AC50 [2]: 14.6 µM [rising, partial curve, poor fit]

CN(C)CCOC(=O)CCCCCCCCC(=O)OCCN(C)C
cell number change: 3.7%
AC50 [1]: 5.17 µM [falling, partial curve, poor fit]

CCOC(=O)c1ccc2ncc(C(=O)OCC)c(NCCN3CCOCC3)c2c1
cell number change: -22.9%
AC50 [1]: 5.17 µM [rising, single point]

COCCNC(=S)N(CCc1c(C)[nH]c2ccc(OC)cc12)Cc1ccco1
cell number change: -3.55%
AC50 [1]: 0.651 µM [falling, single point]

CCN1CCN(c2cc(C)c3cc(NC(=O)CCC(=O)Nc4ccc(OC)cc4OC)ccc3n2)CC1
cell number change: -8.11%
AC50 [1]: 29.1 µM [falling, single point]

Cc1cc(/C=N/n2cnnc2)c(C)n1-c1cc(Cl)ccc1Cl
cell number change: 0.129%

CNC(=O)c1c2c(nc3ccc(Br)cc13)CCCC2
AC50 [1]: 0.116 µM [rising, single point]

Cc1c(NC(=O)C2CCCCN2S(=O)(=O)c2ccc(Cl)cc2)c(=O)n(-c2ccccc2)n1C (stereo unspecified)
cell number change: 11.4%
AC50 [1]: 1.64 µM [falling, partial curve]

C[C@H]1[C@H]2c3nc4ccccc4n3C[C@H]1ON2C1CCCCC1
cell number change: -9.28%
AC50 [1]: 32.6 µM [falling, single point]

CC(=O)c1cccc(NC(=S)NC2CCCCCCC2)c1
cell number change: -4.91%
AC50 [1]: 29.1 µM [falling, single point]

O=C(CN(C(=O)CNS(=O)(=O)c1ccccc1)C1CCCC1)NCc1ccco1
cell number change: -21.7%

CN(C)C(CNC(=O)c1cccs1)c1ccco1 (stereo unspecified)
cell number change: -10.4%
AC50 [1]: 16.4 µM [rising, partial curve]

CCC(C)N(C(=O)COc1ccc(Br)cc1C=O)C1CCS(=O)(=O)C1 (stereo unspecified)
cell number change: 48.5%
AC50 [2]: 13 µM [rising, single point]

COc1ccccc1CN1CC(C(=O)NCc2cnn(C)c2)CCC1=O (stereo unspecified)
cell number change: 1.76%

COCCCn1c(=O)c2sccc2n2c(CCCC(=O)NCc3ccc(F)cc3)nnc12
cell number change: 1.91%
AC50 [1]: 0.58 µM [falling, single point]

CCCN(CC(=O)Nc1ccccc1C)C(=O)c1cn2ccccc2n1
cell number change: -9.59%
AC50 [1]: 3.66 µM [rising, partial curve, poor fit]

Cn1c(=O)c(=O)n(C)c2cc([N+](=O)[O-])c([N+](=O)[O-])cc21
cell number change: -49.1%
AC50 [2]: 0.00461 µM [falling, full curve, poor fit]
AC50 [1]: 0.00461 µM [falling, full curve, poor fit]

CCOc1ccc(C(=O)OCCN(C)C)cc1
cell number change: -32.7%
AC50 [2]: 4.11 µM [falling, full curve]
AC50 [1]: 29.1 µM [falling, single point]

CC(=O)N1CCc2cc(NC(=O)c3ccc(C)cc3)ccc21
AC50 [2]: 1.84 µM [rising, partial curve, poor fit]
AC50 [1]: 0.411 µM [rising, single point]

COc1ccc(NC(=O)C2CCN(c3cnccn3)CC2)cc1Cl
cell number change: 9.79%
AC50 [1]: 25.9 µM [rising, single point]

CC(=O)OCC1=C(C(=O)O)N2C(=O)C(NC(=O)c3ccc(COc4cccc(Cl)c4Cl)o3)C2SC1 (stereo unspecified)
cell number change: -37.7%
AC50 [2]: 29.1 µM [falling, single point]

COc1ccc(OC)c(Nc2nc(NCCCN(C)C)nc(N)c2[N+](=O)[O-])c1
cell number change: -32.1%
AC50 [2]: 5.17 µM [falling, partial curve]
AC50 [1]: 8.2 µM [falling, partial curve]

COc1ccc(NC(=O)c2cccc(S(=O)(=O)N3CCN(C)CC3)c2)c(OC)c1
cell number change: 13.5%
AC50 [1]: 20.6 µM [falling, partial curve]

CC(=NCc1ccco1)c1c(C)[nH]n(-c2nc3ccccc3s2)c1=O
cell number change: -0.489%
AC50 [1]: 6.51 µM [falling, single point]

COc1ccc(Cl)cc1NC(=O)C(C)N1CCN(C/C=C/c2ccccc2)CC1 (stereo unspecified)
cell number change: 11.4%
AC50 [2]: 2.06 µM [rising, partial curve]
AC50 [1]: 6.51 µM [rising, single point]

COc1ccc(NC(=O)CSc2nc(-c3ccco3)nc3cc(=O)[nH]n23)cc1Cl
cell number change: -12.7%
AC50 [1]: 1.3 µM [falling, partial curve]

O=C(/C=C/c1ccc([N+](=O)[O-])cc1)c1cccnc1
cell number change: -53.1%
AC50 [2]: 23.1 µM [falling, single point]
AC50 [1]: 2.31 µM [falling, full curve]

COc1ccc(OC)c(C2C(C(=O)Nc3ccc(F)cc3)=C(C)Nc3nc(CCCO)nn32)c1 (stereo unspecified)
cell number change: 57.6%
AC50 [2]: 11.6 µM [rising, partial curve]

N/C(=N\OC(=O)Oc1ccccc1)c1cccc([N+](=O)[O-])c1
cell number change: 22.1%
AC50 [1]: 6.51 µM [falling, single point]

CCN1CCN(C(=O)Cn2ncc3ccsc3c2=O)CC1
cell number change: -36.1%
AC50 [2]: 1.46 µM [falling, full curve]
AC50 [1]: 1.3 µM [falling, full curve]

Cc1ccc(S(=O)(=O)N2CCC(C(=O)Nc3ccc4c(c3)COC4=O)CC2)cc1
cell number change: -7.71%
AC50 [1]: 0.00461 µM [rising, full curve, poor fit]

COc1ccc(-c2cc(-c3ccccc3)c(C#N)c(SCC(=O)Nc3ncc(C)s3)n2)cc1
cell number change: -3.84%
AC50 [2]: 0.0651 µM [rising, full curve, poor fit]

CCOC(=O)/C=C/C(=O)Nc1ccc(S(=O)(=O)Nc2cc(C)on2)cc1
cell number change: 221%

O=C(NC(=O)N1CCCc2ccccc21)c1ccccc1
cell number change: 13.2%
AC50 [1]: 0.184 µM [falling, full curve, poor fit]

O=C(CSc1nnc(-c2ccoc2)o1)N1CCOCC1
cell number change: 9.75%
AC50 [2]: 3.66 µM [rising, partial curve]
AC50 [1]: 6.51 µM [rising, single point]

Cc1ccc(C(=O)N2CCCC(N3CCN(c4cccc(C(F)(F)F)c4)CC3)C2)s1 (stereo unspecified)
cell number change: -12.8%
AC50 [1]: 2.31 µM [rising, partial curve, poor fit]

O=C(c1cccc2nc3ccccc3nc12)N1CCOCC1
cell number change: -3.04%
AC50 [1]: 29.1 µM [falling, single point]

Cc1ccc(CNC(=O)c2ccc(CN3CCOCC3)cc2)cc1
cell number change: 1.93%
AC50 [1]: 3.26 µM [rising, single point]

Cc1[nH]nc2c1C(=O)CC(C)(C)C2
AC50 [1]: 0.13 µM [falling, full curve, poor fit]

Cn1c(NCc2c[nH]c3ccccc23)nc2ccccc21
cell number change: 74.9%
AC50 [2]: 25.9 µM [rising, single point]
AC50 [1]: 18.4 µM [rising, partial curve]

Cc1ccc(C)c2[nH]c(=O)c(CCNC(=O)c3ccc(S(=O)(=O)N(C)C)cc3)cc12
cell number change: 59.2%
AC50 [2]: 1.64 µM [rising, full curve]
AC50 [1]: 1.84 µM [rising, full curve]
